Data from PubChem BioAssay AID248 (DTP/NCI, 2004).
The list is a part of this screen's results and no random one: its compounds were picked by chemical class. Other doses and runs of a compound may be missing. T/C: endpoint of the treated group in % of that of the vehicle group. For survival time, the PubChem record calls one and a half times the control and up active, and a quarter to a half above the control has no call in these data; cut-offs in other NCI protocols can differ. Some T/C values are marked as having no survivor count here; that says nothing about deaths at the dose. Schedules are NCI's codes, taken here to give the interval after Q, in days (D) or hours (H), and the number of doses after X. Some entries were tested several times; the results are listed from low to high. Some schedules carry Z or #; the key to these is not given. Marks such as (2×) stand for listed records that agree.

Test system: L1210 leukemia ip in BDF1 mice, survival T/C
Assay: NCI In Vivo Anticancer Drug Screen. Data for tumor model L1210 Leukemia (intraperitoneal) in B6D2F1 (BDF1) mice
Settings: T/C endpoint: mean survival time, higher T/C = longer survival
[1] = dose: 100.0 mg/kg/injection, schedule: Q01DX001 (ip), vehicle: carboxymethylcellulose (CMC)
[2] = dose: 2.0 mg/kg/injection, schedule: Q01DX Z (ip), vehicle: methylcellulose (MC)
[3] = dose: 3.0 mg/kg/injection, schedule: Q01DX Z (ip), vehicle: methylcellulose (MC)

For `CCOC(=O)c1ccc(N(CCCl)CCCl)cc1`, the T/C [1] was 103 % of control [survivor count not shown], the T/C (dose: 200.0 mg/kg/injection, schedule: Q01DX001 (ip), vehicle: carboxymethylcellulose (CMC)) was 102 % of control [survivor count not shown] and the T/C (dose: 400.0 mg/kg/injection, schedule: Q01DX001 (ip), vehicle: carboxymethylcellulose (CMC)) was 105 % of control [survivor count not shown].

For `O=C(O)C(=O)Cc1ccc(N(CCCl)CCCl)cc1`, the T/C [2] was 125 % of control [survivor count not shown], the T/C [3] was 137 % of control [survivor count not shown] and the T/C (dose: 4.4 mg/kg/injection, schedule: Q01DX Z (ip), vehicle: methylcellulose (MC)) was 145 [survivor count not shown] and 154 % of control [survivor count not shown]. The T/C (dose: 6.0 mg/kg/injection, schedule: Q01DX Z (ip), vehicle: methylcellulose (MC)) was 101 [survivor count not shown] and 134 % of control [survivor count not shown], the T/C (dose: 6.6 mg/kg/injection, schedule: Q01DX Z (ip), vehicle: methylcellulose (MC)) was 122 [survivor count not shown] and 129 % of control [survivor count not shown] and the T/C (dose: 10.0 mg/kg/injection, schedule: Q01DX Z (ip), vehicle: methylcellulose (MC)) was 108 [survivor count not shown], 156 [survivor count not shown], 162 % of control [survivor count not shown]. For the same compound, the T/C (dose: 11.0 mg/kg/injection, schedule: Q01DX Z (ip), vehicle: methylcellulose (MC)) was 129 [survivor count not shown] and 175 % of control [survivor count not shown], the T/C (dose: 15.0 mg/kg/injection, schedule: Q01DX Z (ip), vehicle: methylcellulose (MC)) was 98 [survivor count not shown], 141 [survivor count not shown], 190 % of control [survivor count not shown] and the T/C (dose: 16.0 mg/kg/injection, schedule: Q01DX Z (ip), vehicle: methylcellulose (MC)) was 111 [survivor count not shown] and 137 % of control [survivor count not shown]. The T/C (dose: 22.0 mg/kg/injection, schedule: Q01DX Z (ip), vehicle: methylcellulose (MC)) was 96 [survivor count not shown] and 102 % of control [survivor count not shown] and the T/C (dose: 24.0 mg/kg/injection, schedule: Q01DX Z (ip), vehicle: methylcellulose (MC)) was 112 % of control [survivor count not shown].

In the case of `CC/C(C)=N/N(CCCl)CCCl`, the T/C (dose: 100.0 mg/kg/injection, schedule: Q01DX009 (ip), vehicle: saline) is reported as 103 % of control [survivor count not shown].

`CN(/N=C\c1ccc(N(CCCl)CCCl)cc1)C(=N)N` was tested, and the T/C (dose: 6.0 mg/kg/injection, schedule: Q01DX001 (ip), vehicle: carboxymethylcellulose (CMC)) was 96 % of control [survivor count not shown], the T/C (dose: 12.0 mg/kg/injection, schedule: Q01DX001 (ip), vehicle: carboxymethylcellulose (CMC)) was 100 % of control [survivor count not shown] and the T/C (dose: 25.0 mg/kg/injection, schedule: Q01DX001 (ip), vehicle: carboxymethylcellulose (CMC)) was 94 % of control [survivor count not shown]. The T/C (dose: 50.0 mg/kg/injection, schedule: Q01DX001 (ip), vehicle: carboxymethylcellulose (CMC)) was 113 % of control [survivor count not shown] and the T/C [1] was 100 [survivor count not shown] and 101 % of control [survivor count not shown].

With `O=C(O)CCc1ccc(CN(CCCl)CCCl)cc1` the T/C (dose: 0.9 mg/kg/injection, schedule: Q01DX Z (ip), vehicle: methylcellulose (MC)) was 125 % of control [survivor count not shown], the T/C (dose: 1.3 mg/kg/injection, schedule: Q01DX Z (ip), vehicle: methylcellulose (MC)) was 143 % of control [survivor count not shown] and the T/C (dose: 1.56 mg/kg/injection, schedule: Q04DX003 (ip), vehicle: saline) was 106 % of control [survivor count not shown]. For the same compound, the T/C [2] was 101 [survivor count not shown], 110 [survivor count not shown], 126 [survivor count not shown], 146 % of control [survivor count not shown], the T/C (dose: 2.05 mg/kg/injection, schedule: Q01DX009 (ip), vehicle: saline) was 118 % of control [survivor count not shown] and the T/C (dose: 2.05 mg/kg/injection, schedule: Q04DX003 (ip), vehicle: saline) was 111 [survivor count not shown] and 118 % of control [survivor count not shown]. For the same compound, the T/C [3] was 114 [survivor count not shown], 117 [survivor count not shown] (2×), 140 % of control [survivor count not shown], the T/C (dose: 3.12 mg/kg/injection, schedule: Q01DX009 (ip), vehicle: saline) was 132 % of control [survivor count not shown] and the T/C (dose: 3.12 mg/kg/injection, schedule: Q04DX003 (ip), vehicle: saline) was 111 [survivor count not shown], 116 [survivor count not shown], 132 % of control [survivor count not shown]. For the same compound, the T/C (dose: 4.5 mg/kg/injection, schedule: Q01DX Z (ip), vehicle: methylcellulose (MC)) was 98 % of control [survivor count not shown], the T/C (dose: 4.68 mg/kg/injection, schedule: Q04DX003 (ip), vehicle: saline) was 114 [survivor count not shown] and 121 % of control [survivor count not shown] and the T/C (dose: 5.0 mg/kg/injection, schedule: Q01DX001 (ip), vehicle: carboxymethylcellulose (CMC)) was 122 % of control [survivor count not shown]. For the same compound, the T/C (dose: 10.0 mg/kg/injection, schedule: Q01DX001 (ip), vehicle: carboxymethylcellulose (CMC)) was 119 % of control [survivor count not shown].

`CCNC(=O)Cc1ccc(N(CCCl)CCCl)cc1` was tested, and the T/C (dose: 75.0 mg/kg/injection, schedule: Q01DX001 (ip), vehicle: saline) was 100 % of control [survivor count not shown], the T/C (dose: 150.0 mg/kg/injection, schedule: Q01DX001 (ip), vehicle: saline) was 94 % of control [survivor count not shown] and the T/C (dose: 300.0 mg/kg/injection, schedule: Q01DX001 (ip), vehicle: saline) was 109 % of control [survivor count not shown].

With `COc1cc(CN(CCCl)CCCl)cc(OC)c1OC` the T/C (dose: 5.0 mg/kg/injection, schedule: Q01DX009 (ip), vehicle: saline) was 121 % of control [survivor count not shown], the T/C (dose: 5.0 mg/kg/injection, schedule: Q01DX Z (ip), vehicle: saline) was 97 % of control [survivor count not shown] and the T/C (dose: 10.0 mg/kg/injection, schedule: Q01DX009 (ip), vehicle: saline) was 105 % of control [survivor count not shown].

With `O=P(Cl)(Cl)CCCBr` the T/C (dose: 9.37 mg/kg/injection, schedule: Q01DX009 (ip), vehicle: saline) was 95 % of control [survivor count not shown], the T/C (dose: 18.75 mg/kg/injection, schedule: Q01DX009 (ip), vehicle: saline) was 101 % of control [survivor count not shown] and the T/C (dose: 18.75 mg/kg/injection, schedule: Q04DX003 (ip), vehicle: acetone) was 90 % of control [survivor count not shown]. The T/C (dose: 37.5 mg/kg/injection, schedule: Q01DX009 (ip), vehicle: saline) was 90 % of control [survivor count not shown], the T/C (dose: 37.5 mg/kg/injection, schedule: Q04DX003 (ip), vehicle: acetone) was 91 % of control [survivor count not shown] and the T/C (dose: 75.0 mg/kg/injection, schedule: Q01DX001 (ip), vehicle: acetone) was 94 % of control [survivor count not shown]. The T/C (dose: 75.0 mg/kg/injection, schedule: Q04DX003 (ip), vehicle: acetone) was 88 % of control [survivor count not shown].

With `O=C(CCN(CCCl)CCCl)c1cccc([N+](=O)[O-])c1` the T/C (dose: 5.0 mg/kg/injection, schedule: Q01DX015 (ip), vehicle: saline) was 96 % of control [survivor count not shown], the T/C (dose: 6.25 mg/kg/injection, schedule: Q01DX009 (ip), vehicle: carboxymethylcellulose (CMC)) was 108 % of control [survivor count not shown] and the T/C (dose: 8.0 mg/kg/injection, schedule: Q01DX015 (ip), vehicle: saline) was 116 % of control [survivor count not shown]. The T/C (dose: 12.0 mg/kg/injection, schedule: Q01DX015 (ip), vehicle: saline) was 125 % of control [survivor count not shown], the T/C (dose: 12.5 mg/kg/injection, schedule: Q01DX009 (ip), vehicle: carboxymethylcellulose (CMC)) was 111 % of control [survivor count not shown] and the T/C (dose: 18.0 mg/kg/injection, schedule: Q01DX015 (ip), vehicle: saline) was 93 % of control [survivor count not shown]. The T/C (dose: 25.0 mg/kg/injection, schedule: Q01DX009 (ip), vehicle: carboxymethylcellulose (CMC)) was 116 % of control [survivor count not shown] and the T/C (dose: 50.0 mg/kg/injection, schedule: Q01DX001 (ip), vehicle: saline) was 135 % of control [survivor count not shown].
